Some entries share one result that the patent states for a list of compounds.
Tested on: Human neonate foreskin fibroblasts (ATCC Catalogue No. CRL-2097)
Test: Evaluation of cell membrane permeability function, confocal laser scanning microscopy of fluorescently labeled peptide
Type: cell-based
Conditions: 1 μM peptide, 1 or 4 hours culture, methanol fixed
Procedure: Human neonate foreskin fibroblasts (ATCC Catalogue No. CRL-2097) were used as the eukaryotic cells, and the cell membrane permeability capability of the samples (constructs for transferring a foreign substance) obtained in Example 1 above was investigated.
More specifically, the abovementioned fibroblasts were cultured in a liquid mixture of 90% Eagle MEM culture medium (containing 0.1% nonessential amino acids, 2 mM L-glutamine, 1 mM sodium pyruvate, and 1.5 g/L sodium hydrogen carbonate) and 10% serum (FBS) as the culture medium.
The cultured cells were trypsinized for 1 min at 37° C. with a 0.25% trypsin solution. After the abovementioned treatment, the trypsin was deactivated with FBS-containing medium, and a cell suspension (test sample for foreign substance transfer) was prepared by adjusting the cell concentration to approximately 5×10^4 cells/mL with the culture medium.
Next, 0.5 mL of the abovementioned cell suspension was placed in a designated cell culturing container (culture slide with a surface coating of 0.1% gelatin), and the cells were incubated overnight at 37° C. in a 5% CO2 atmosphere. After incubation the medium was replaced with fresh culture medium, and the 1 mM sample solutions of each of the samples prepared in abovementioned Example 1 were added to a cell culture container so that the final sample concentration (peptide concentration) would be 1 μM. […]

(FAM)-KRPRRRPSRPFRKP (N-terminal FAM label) [compound 13]
penetration of the cell membrane from outside the cell and transfer into the cytoplasm: nearly the same results as in Sample No. 14

— US20130323776A1, “CARRIER PEPTIDE FRAGMENT AND USE THEREOF” (Toagosei Co. Ltd., priority 2009, published 2013)
